Nine targets from the supplement of paper PMC12819154, “High-throughput peptide-centric local stability assay extends protein–ligand identification to membrane proteins, tissues and bacteria” (Nature Structural & Molecular Biology, 2025) can be followed below.

Sequences of proteins named here, by UniProt entry; tags and fusion partners are left off. A change or cut given only in a name is not applied to a line headed by its entry.
UniProt P21266: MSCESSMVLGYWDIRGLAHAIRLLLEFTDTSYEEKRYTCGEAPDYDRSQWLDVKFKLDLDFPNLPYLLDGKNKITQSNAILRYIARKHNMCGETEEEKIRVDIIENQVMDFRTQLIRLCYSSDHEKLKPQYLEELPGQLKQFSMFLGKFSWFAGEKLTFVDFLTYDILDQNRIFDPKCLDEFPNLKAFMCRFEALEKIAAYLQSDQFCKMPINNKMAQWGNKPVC
UniProt P24522: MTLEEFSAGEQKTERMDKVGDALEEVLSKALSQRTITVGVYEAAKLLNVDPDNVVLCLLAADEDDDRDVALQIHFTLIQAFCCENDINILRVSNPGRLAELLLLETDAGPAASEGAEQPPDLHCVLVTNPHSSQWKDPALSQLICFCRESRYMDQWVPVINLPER
UniProt P27986, whole entry: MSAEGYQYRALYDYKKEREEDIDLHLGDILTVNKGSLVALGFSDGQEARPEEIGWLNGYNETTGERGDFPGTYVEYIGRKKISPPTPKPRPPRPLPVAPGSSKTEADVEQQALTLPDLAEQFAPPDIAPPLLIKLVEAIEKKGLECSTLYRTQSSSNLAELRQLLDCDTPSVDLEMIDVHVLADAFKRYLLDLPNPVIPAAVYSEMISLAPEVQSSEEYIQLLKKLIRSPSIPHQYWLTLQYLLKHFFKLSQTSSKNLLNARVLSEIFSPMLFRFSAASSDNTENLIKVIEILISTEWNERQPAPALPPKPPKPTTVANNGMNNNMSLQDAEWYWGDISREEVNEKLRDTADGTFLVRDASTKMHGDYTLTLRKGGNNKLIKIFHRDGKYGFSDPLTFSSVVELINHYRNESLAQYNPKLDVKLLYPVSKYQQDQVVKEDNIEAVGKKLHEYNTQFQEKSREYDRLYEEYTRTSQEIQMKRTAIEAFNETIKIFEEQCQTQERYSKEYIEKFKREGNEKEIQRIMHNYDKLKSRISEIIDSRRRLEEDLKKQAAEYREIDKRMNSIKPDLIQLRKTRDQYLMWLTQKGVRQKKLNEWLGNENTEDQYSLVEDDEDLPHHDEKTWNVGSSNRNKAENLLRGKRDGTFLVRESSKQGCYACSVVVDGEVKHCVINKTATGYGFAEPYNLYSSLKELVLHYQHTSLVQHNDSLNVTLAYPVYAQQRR
UniProt P25054, whole entry: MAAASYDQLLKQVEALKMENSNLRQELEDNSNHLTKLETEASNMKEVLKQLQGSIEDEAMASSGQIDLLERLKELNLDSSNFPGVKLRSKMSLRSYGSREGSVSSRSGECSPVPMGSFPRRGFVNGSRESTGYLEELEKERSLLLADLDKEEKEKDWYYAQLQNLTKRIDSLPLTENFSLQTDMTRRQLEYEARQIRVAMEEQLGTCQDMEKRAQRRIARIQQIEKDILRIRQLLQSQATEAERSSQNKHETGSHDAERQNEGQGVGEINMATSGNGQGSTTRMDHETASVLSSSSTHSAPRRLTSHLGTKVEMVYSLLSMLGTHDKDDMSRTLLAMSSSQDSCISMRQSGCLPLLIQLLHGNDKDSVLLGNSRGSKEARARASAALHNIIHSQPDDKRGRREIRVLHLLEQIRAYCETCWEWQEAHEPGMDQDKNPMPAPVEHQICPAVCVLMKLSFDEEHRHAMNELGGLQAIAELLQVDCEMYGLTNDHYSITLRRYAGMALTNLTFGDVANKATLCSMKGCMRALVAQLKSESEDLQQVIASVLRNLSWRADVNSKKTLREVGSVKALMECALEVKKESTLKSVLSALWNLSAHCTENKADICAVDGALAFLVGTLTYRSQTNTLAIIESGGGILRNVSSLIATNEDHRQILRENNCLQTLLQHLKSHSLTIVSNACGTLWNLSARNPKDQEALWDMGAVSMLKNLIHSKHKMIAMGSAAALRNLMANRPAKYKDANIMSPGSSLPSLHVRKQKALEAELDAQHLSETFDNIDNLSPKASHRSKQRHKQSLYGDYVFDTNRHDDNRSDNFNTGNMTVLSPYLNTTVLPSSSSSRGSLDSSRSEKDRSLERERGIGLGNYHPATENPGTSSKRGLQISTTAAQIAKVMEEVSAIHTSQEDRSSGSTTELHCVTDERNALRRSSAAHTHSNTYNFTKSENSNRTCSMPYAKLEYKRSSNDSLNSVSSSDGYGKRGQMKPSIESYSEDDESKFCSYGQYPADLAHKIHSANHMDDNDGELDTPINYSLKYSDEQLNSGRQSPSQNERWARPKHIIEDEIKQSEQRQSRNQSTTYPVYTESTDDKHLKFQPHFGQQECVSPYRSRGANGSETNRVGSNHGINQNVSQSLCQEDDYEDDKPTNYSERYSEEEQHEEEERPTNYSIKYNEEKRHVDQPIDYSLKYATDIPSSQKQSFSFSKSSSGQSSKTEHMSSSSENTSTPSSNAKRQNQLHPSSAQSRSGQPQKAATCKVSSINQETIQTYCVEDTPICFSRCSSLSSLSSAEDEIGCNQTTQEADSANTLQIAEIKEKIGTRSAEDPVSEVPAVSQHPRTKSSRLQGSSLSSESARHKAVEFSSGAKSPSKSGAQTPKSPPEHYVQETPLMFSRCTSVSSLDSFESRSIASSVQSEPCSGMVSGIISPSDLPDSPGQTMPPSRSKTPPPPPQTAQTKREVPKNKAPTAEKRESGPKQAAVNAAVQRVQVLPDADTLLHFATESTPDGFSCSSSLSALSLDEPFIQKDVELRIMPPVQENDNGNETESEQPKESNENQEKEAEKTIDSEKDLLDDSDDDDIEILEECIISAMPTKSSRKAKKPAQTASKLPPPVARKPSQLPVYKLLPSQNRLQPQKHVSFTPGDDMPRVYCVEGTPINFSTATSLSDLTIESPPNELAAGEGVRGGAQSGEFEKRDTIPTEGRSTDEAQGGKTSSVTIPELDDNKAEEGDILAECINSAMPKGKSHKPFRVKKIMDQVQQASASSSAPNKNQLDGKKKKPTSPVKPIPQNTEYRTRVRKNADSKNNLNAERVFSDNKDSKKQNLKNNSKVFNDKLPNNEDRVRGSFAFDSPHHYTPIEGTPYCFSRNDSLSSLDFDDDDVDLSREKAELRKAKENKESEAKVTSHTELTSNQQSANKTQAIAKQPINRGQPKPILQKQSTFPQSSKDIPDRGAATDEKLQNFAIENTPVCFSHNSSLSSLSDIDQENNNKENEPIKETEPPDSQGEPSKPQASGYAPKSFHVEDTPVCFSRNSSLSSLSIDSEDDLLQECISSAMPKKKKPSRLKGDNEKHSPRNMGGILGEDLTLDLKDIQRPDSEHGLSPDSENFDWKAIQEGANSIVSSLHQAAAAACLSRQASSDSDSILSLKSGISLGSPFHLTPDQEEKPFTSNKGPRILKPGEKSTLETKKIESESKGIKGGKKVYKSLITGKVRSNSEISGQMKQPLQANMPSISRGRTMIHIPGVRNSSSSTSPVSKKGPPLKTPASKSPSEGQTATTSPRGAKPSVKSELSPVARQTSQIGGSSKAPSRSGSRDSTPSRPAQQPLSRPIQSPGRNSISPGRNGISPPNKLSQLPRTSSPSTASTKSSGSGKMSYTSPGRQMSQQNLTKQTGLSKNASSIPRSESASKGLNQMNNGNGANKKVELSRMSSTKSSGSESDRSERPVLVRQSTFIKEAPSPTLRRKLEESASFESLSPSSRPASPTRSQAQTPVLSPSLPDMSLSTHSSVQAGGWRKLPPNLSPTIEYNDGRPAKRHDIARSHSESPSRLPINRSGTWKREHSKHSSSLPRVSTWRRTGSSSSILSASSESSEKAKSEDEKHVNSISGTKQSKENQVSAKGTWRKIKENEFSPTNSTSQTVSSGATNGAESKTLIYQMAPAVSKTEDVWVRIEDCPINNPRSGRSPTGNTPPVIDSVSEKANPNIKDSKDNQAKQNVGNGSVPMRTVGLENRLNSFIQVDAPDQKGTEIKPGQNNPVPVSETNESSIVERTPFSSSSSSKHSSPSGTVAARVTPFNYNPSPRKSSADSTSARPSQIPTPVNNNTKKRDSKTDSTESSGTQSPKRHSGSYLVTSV
UniProt P26368, whole entry: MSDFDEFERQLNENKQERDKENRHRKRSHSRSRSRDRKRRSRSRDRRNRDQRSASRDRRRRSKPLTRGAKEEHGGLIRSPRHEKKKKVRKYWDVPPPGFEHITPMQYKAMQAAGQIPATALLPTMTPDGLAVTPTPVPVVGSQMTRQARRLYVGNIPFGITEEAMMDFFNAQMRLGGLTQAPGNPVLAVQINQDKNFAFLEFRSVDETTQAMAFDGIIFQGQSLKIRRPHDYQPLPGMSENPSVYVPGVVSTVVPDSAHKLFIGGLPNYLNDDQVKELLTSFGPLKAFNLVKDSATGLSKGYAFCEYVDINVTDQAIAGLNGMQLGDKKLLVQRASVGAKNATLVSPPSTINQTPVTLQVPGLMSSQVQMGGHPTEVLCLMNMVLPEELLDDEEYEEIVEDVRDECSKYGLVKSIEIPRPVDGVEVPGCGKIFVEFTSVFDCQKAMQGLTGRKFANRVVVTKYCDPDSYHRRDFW
UniProt P24468: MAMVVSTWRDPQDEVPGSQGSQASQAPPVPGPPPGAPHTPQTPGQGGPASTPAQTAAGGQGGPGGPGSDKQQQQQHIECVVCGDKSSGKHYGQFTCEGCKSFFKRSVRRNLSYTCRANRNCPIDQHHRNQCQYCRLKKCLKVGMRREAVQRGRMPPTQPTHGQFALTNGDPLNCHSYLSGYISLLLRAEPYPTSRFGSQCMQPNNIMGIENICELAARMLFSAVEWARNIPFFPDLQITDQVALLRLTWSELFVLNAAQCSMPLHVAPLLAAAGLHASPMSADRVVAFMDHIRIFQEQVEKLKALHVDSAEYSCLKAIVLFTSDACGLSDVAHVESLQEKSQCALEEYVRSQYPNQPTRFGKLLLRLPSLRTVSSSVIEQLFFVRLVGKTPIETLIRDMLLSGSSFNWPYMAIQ

The list shows a part of the results. Most entries show no effect beyond the scatter of the controls.

Compound in this assay: Cc1nc(Nc2ncc(C(=O)Nc3c(C)cccc3Cl)s2)cc(N2CCN(CCO)CC2)n1 [dasatinib]
As to the kind of experiment: log2 fold change of tryptic peptide abundance, ligand vs vehicle (limited proteolysis) (log2 ratio); higher = more trypsin-susceptible (destabilized). The conditions noted are these: ligand concentration: 5 uM; sample: K562 cleared lysate.
Regarding “GSTM3 (peptide sequence: ITQSNAILR, peptide start residue: 74) (UniProt P21266)”, the log2 fold change came out at 0.305. On to “BTF3 (peptide sequence: GGCPGGEATLSQPPPRGGTR, peptide start residue: 20) (UniProt P20290)”, for which the log2 fold change is -0.566. Consider “GADD45A (peptide sequence: MDKVGDALEEVLSK, peptide start residue: 16) (UniProt P24522)”, for which the log2 fold change worked out at 0.0129. For “PIK3R1 (peptide sequence: LHEYNTQFQEK, peptide start residue: 449) (UniProt P27986)”, the log2 fold change is 0.397. With “SNRPB (peptide sequence: VLGLVLLR, peptide start residue: 66) (UniProt P14678)”, the log2 fold change was -0.0665. Consider “APC (peptide sequence: QSLYGDYVFDTNRHDDNR, peptide start residue: 793) (UniProt P25054)”, for which the log2 fold change stood at 0.793. As for “RPL7 (peptide sequence: GINGVSPKVR, peptide start residue: 97) (UniProt P18124)”, the log2 fold change worked out at 0.577. For “U2AF2 (peptide sequence: VVVTKYCDPDSYHRR, peptide start residue: 458) (UniProt P26368)” the value was 0.638; for “UniProt P24468 (peptide sequence: SQYPNQPTR, peptide start residue: 351)”, -0.111.
